Reference: publication PMC3587611
Results are given in words; binding and its absence hold for the method and conditions named. Binding seen in cells or lysates may run through a third protein. Some results given as binding are weak or reduced against the parent protein; the word gives no strength. Sequences can lack the tags named with a protein. One block for each binder: values may come before it.

Target: T1, GST-Dullard recombinant protein (lacking the first 30 amino acids) (UniProt Q3TP92)
T1 sequence: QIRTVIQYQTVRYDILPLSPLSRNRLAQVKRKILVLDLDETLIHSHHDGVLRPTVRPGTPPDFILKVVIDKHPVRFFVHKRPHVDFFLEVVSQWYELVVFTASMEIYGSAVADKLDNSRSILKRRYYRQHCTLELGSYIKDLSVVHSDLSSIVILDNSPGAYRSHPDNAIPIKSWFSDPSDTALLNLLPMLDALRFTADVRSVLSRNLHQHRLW
Assay: pull-down; GST-Dullard recombinant protein as bait; Myc-tagged Dvls from transfected HEK293 cells, detected by an anti-Myc antibody; two independent experiments

binding: binds
B1: Myc-tagged Dvl3 (protein, UniProt Q61062 1-716)
chain: MGETKIIYHLDGQETPYLVKLPLPAERVTLADFKGVLQRPSYKFFFKSMDDDFGVVKEEISDDNAKLPCFNGRVVSWLVSAEGSHPEPAPFCADNPSELPPSMERTGGIGDSRPPSFHPHASGGSQENLDNDTETDSLVSAQRERPRRRDGPEHAARLNGTTKGERRREPGGYDSSSTLMSSELETTSFFDSDEDDSTSRFSSSTEQSSASRLMRRHKRRRRKQKVSRIERSSSFSSITDSTMSLNIITVTLNMEKYNFLGISIVGQSNERGDGGIYIGSIMKGGAVAADGRIEPGDMLLQVNEINFENMSNDDAVRVLREIVHKPGPITLTVAKCWDPSPRGCFTLPRSEPIRPIDPAAWVSHTAAMTGTFPAYGMSPSLSTITSTSSSITSSIPDTERLDDFHLSIHSDMAAIVKAMASPESGLEVRDRMWLKITIPNAFIGSDVVDWLYHNVEGFTDRREARKYASNLLKAGFIRHTVNKITFSEQCYYIFGDLCGNMANLSLHDHDGSSGASDQDTLAPLPHPGAAPWPMAFPYQYPPPPHPYNPHPGFPELGYSYGGGSASSQHSEGSRSSGSNRSGSDRRKEKDPKAGDSKSGGSGSESDHTTRSSLRGPRERAPSERSGPAASEHSHRSHHSLTSSLRSHHTHPSYGPPGVPPLYGPPMLMMTPPPAAMGPPGAPPGRDLASVPPELTASRQSFRMAMGNPSEFFVDVM

binding: binds
B2: Myc-tagged Dvl1 (protein, UniProt P51141 1-695)
chain: MAETKIIYHMDEEETPYLVKLPVAPERVTLADFKNVLSNRPVHAYKFFFKSMDQDFGVVKEEIFDDNAKLPCFNGRVVSWLVLAEGAHSDAGSQGTDSHTDLPPPLERTGGIGDSRPPSFHPNVASSRDGMDNETGTESMVSHRRERARRRNRDEAARTNGHPRGDRRRDLGLPPDSASTVLSSELESSSFIDSDEEDNTSRLSSSTEQSTSSRLVRKHKCRRRKQRLRQTDRASSFSSITDSTMSLNIITVTLNMERHHFLGISIVGQSNDRGDGGIYIGSIMKGGAVAADGRIEPGDMLLQVNDVNFENMSNDDAVRVLREIVSQTGPISLTVAKCWDPTPRSYFTIPRADPVRPIDPAAWLSHTAALTGALPRYGTSPCSSAITRTSSSSLTSSVPGAPQLEEAPLTVKSDMSAIVRVMQLPDSGLEIRDRMWLKITIANAVIGADVVDWLYTHVEGFKERREARKYASSMLKHGFLRHTVNKITFSEQCYYVFGDLCSNLASLNLNSGSSGASDQDTLAPLPHPSVPWPLGQGYPYQYPGPPPCFPPAYQDPGFSCGSGSAGSQQSEGSKSSGSTRSSHRTPGREERRATGAGGSGSESDHTVPSGSGSTGWWERPVSQLSRGSSPRSQASAVAPGLPPLHPLTKAYAVVGGPPGGPPVRELAAVPPELTGSRQSFQKAMGNPCEFFVDIM

binding: binds
B3: Myc-tagged Dvl2 (protein, UniProt Q60838 1-736)
chain: MAGSSAGGGGVGETKVIYHLDEEETPYLVKIPVPAERITLGDFKSVLQRPAGAKYFFKSMDQDFGVVKEEISDDNARLPCFNGRVVSWLVSSDTPQPEVAPPAHESRTELVPPPPPLPPLPPERTSGIGDSRPPSFHPNVSSSHENLEPETETESVVSLRRDRPRRRDSSEHGAGGHRPGGPSRLERHLAGYESSSTLMTSELESTSLGDSDEDDTMSRFSSSTEQSSASRLLKRHRRRRKQRPPRMERTSSFSSVTDSTMSLNIITVTLNMEKYNFLGISIVGQSNERGDGGIYIGSIMKGGAVAADGRIEPGDMLLQVNDMNFENMSNDDAVRVLRDIVHKPGPIVLTVAKCWDPSPQAYFTLPRNEPIQPIDPAAWVSHSAALTGAFPAYPGSSSMSTITSGSSLPDGCEGRGLSVHMDMASVTKAMAAPESGLEVRDRMWLKITIPNAFLGSDVVDWLYHHVEGFPERREARKYASGLLKAGLIRHTVNKITFSEQCYYVFGDLSGGCESYLVNLSLNDNDGSSGASDQDTLAPLPGATPWPLLPTFSYQYPAPHPYSPQPPPYHELSSYTYGGGSASSQHSEGSRSSGSTRSDGGAGRTGRPEERAPESKSGSGSESELSSRGGSLRRGGEPGGTGDGGPPPSRGSTGAPPNLRALPGLHPYGAPSGMALPYNPMMVVMMPPPPPPVSTAVQPPGAPPVRDLGSVPPELTASRQSFHMAMGNPSEFFVDVM
